Results are given in words; binding and its absence hold for the method and conditions named. Binding seen in cells or lysates may run through a third protein. Binding calls can cover weak binding; strength is not graded here.
Biological target: T1, tetraspanin Co-029/tspan8 (UniProt P19075)
T1 sequence: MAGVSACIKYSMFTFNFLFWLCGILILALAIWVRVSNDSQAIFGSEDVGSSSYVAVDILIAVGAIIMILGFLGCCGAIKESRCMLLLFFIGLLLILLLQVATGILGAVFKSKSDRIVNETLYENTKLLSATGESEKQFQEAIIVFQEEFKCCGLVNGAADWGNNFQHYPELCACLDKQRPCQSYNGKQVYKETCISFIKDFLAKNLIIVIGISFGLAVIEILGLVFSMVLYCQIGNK
Assay: cross-linking; intact cells incubated 30 min at 4°C with 0.7 mM membrane-impermeant BS3 in PBS; lysis in 1% Triton X-100; immunoprecipitation with Co-029 mAb; the ~200-220 kDa cross-linked product analysed by mass spectrometry

For “E-cadherin (human (endogenous in Isreco1))”, the binding was “binds”.
